Reference: PubChem BioAssay AID540276 (National Center for Advancing Translational Sciences (NCATS), 2011)
The whole screen tested about 300,000 compounds, of which about 5,400 (1.8%) were called active. This list was built around the results that the source calls inconclusive (neither active nor inactive); the mix of calls is not that of the screen. The call rests on the fitted dose curve; tested in HEK293 cells. A potency beside an inconclusive call is a rough fit, not a confirmed value.
Potency means the concentration at half of the fitted maximal effect.

Assay: qHTS for inhibitors of binding or entry into cells for Marburg Virus
Details: Marburg virus pseudotyped entry inhibition, cell reporter; series mostly up to 37.8 µM
For Cc1ccc(C(=O)OCC(=O)c2cc(C)n(CC3CCCO3)c2C)cc1 (centres undefined), the Potency was inconclusive: 6.31 µM [activator, single point].
In the case of O=C(COC(=O)CSc1ccc([N+](=O)[O-])cc1)NCc1ccco1, the Potency is reported as inconclusive: 0.891 µM [inhibitor, partial curve, poor fit].
With Cc1cnc(C(=O)Nc2ccc(S(=O)(=O)NCC(C)C)cc2)cn1 the Potency was inconclusive: 20.6 µM [inhibitor, single point].
With O=c1cc(-c2ccc(O)c(O)c2)oc2c(C3O[C@H](CO)[C@@H](O)[C@H](O)[C@H]3O)c(O)cc(O)c12 (some centres undefined) the Potency was inconclusive: 11.6 µM [inhibitor, partial curve, poor fit].
With CCOC(=O)C1=C(C)N=C2c3ccccc3C(=O)C2C1c1ccc(Cl)cc1 (centres undefined) the Potency was inconclusive: 16.4 µM [inhibitor, single point].
With Cc1ccccc1-c1nnc(SCc2ccccc2F)o1 the Potency was inconclusive: 0.461 µM [activator, single point].
With CC(=O)Oc1ccc2occ(C(=O)c3cccs3)c2c1 the Potency was “inactive”.
In the case of COc1ccc(N2CCN(c3ccc(-c4nc(-c5cccc(C)c5)no4)cc3[N+](=O)[O-])CC2)cc1, the Potency is reported as “inactive”.
In the case of CCOC(=O)C1CCCN(C(=O)c2cn(CC(C)C)c(=O)c3cc(OC)c(OC)cc23)C1 (centres undefined), the Potency is reported as “inactive”.
With Cc1ccc2nc(/C(C#N)=C\c3ccc(Oc4ccc(C(F)(F)F)cc4[N+](=O)[O-])cc3)[nH]c2c1 the Potency was inconclusive: 7.08 µM [inhibitor, partial curve, poor fit].
In the case of COc1ccc(N2CC(C(=O)NCCc3c[nH]c4ccccc34)CC2=O)cc1 (centres undefined), the Potency is reported as inconclusive: 3.55 µM [activator, single point].
With CCCC(c1nnnn1C(C)(C)CC)N1CCN(C2CCCC2)CC1 (centres undefined) the Potency was inconclusive: 3.16 µM [inhibitor, single point].
In the case of CCNc1nc(Oc2ccccc2)nc(O[C@@H](C)C(=O)OCC)n1, the Potency is reported as “inactive”.
For CCOc1ccc(CCNC(=O)c2[nH]c3cc(OC)ccc3c2Sc2ccccc2)cc1OCC, the Potency was inconclusive: 1 µM [inhibitor, full curve, poor fit].
For COc1ccc(/C=C/c2nc3cc(-c4ccccc4)ccc3o2)cc1O, the Potency was inconclusive: 35.5 µM [inhibitor, single point].
In the case of Cn1cc(CN2CCN(c3ccccc3)CC2)c2ccccc21, the Potency is reported as active: 14.6 µM.
With CC(C)c1ccc(C=NNc2ccc([N+](=O)[O-])cn2)cc1 the Potency was inconclusive: 0.631 µM [activator, full curve, poor fit].
With CSc1ccc(S(=O)(=O)Nc2ccc3c4c(cccc24)CC3)cc1 the Potency was inconclusive: 20.6 µM [inhibitor, partial curve, poor fit].
In the case of Cc1c(NC(=O)CN2CCN(c3cccc(Cl)c3)CC2)c(=O)n(-c2ccccc2)n1C, the Potency is reported as inconclusive: 8.91 µM [inhibitor, single point].
With CCOC(=O)C1=C(CN(CC)Cc2ccccc2)NC(=O)NC1c1ccc(OC(C)C)cc1 (centres undefined) the Potency was inconclusive: 20 µM [inhibitor, single point].
For CCCCN(CC)Cc1ccc(CNC(=S)Nc2cccc(F)c2)o1, the Potency was inconclusive: 35.5 µM [inhibitor, single point].
With O=C(NC1=C(Nc2ccc(F)cc2)C(=O)c2ccccc2C1=O)c1ccc(Cl)cc1 the Potency was “inactive”.
With Cc1nc(C(C)(C)O)n(-c2ccccc2)n1 the Potency was “inactive”.
In the case of CCCCN(CC)C(=O)Cc1ccccc1OC, the Potency is reported as inconclusive: 35.5 µM [activator, single point].
In the case of CCOc1cc(C)c(Cl)cc1S(=O)(=O)N(C)C, the Potency is reported as “inactive”.
With O=c1c2c([nH]c3ccccc13)CCCCC2 the Potency was “inactive”.
With O=C(c1cccnc1)N1CCN(c2ccc(Cl)cc2)CC1 the Potency was “inactive”.
With Oc1ccc(C(=S)N2CCN(c3cccc(Cl)c3)CC2)cc1 the Potency was inconclusive: 10 µM [inhibitor, partial curve].
In the case of Cc1ccc(NC(=O)CSc2nc(NS(=O)(=O)c3ccccc3)cc(=O)[nH]2)cc1, the Potency is reported as inconclusive: 6.31 µM [inhibitor, single point].
In the case of Cc1ccc(-n2nc3c(=O)n(CCCC(=O)NCCN4CCN(C)CC4)nc(C)c3c2C)cc1, the Potency is reported as “inactive”.
For COCCCNC(=S)NC(=O)c1ccc([N+](=O)[O-])cc1, the Potency was inconclusive: 17.8 µM [activator, partial curve, poor fit].
With CN(C)C(CNC(=O)CCCN1C(=O)c2cccc3cccc(c23)C1=O)c1ccccc1 (centres undefined) the Potency was inconclusive: 11.2 µM [inhibitor, partial curve, poor fit].
For O=C1c2ccccc2S(=O)(=O)N1CCOc1ccc(F)cc1, the Potency was “inactive”.
For C[C@]12CCC3C(CC[C@H]4C[C@H](O)CC[C@]34C)C1C[C@H](O)[C@@H]2O (some centres undefined), the Potency was inconclusive: 2 µM [activator, partial curve, poor fit].
For CCCn1c(SCC(=O)N2c3ccccc3Sc3ccccc32)nc2c1c(=O)n(C)c(=O)n2C, the Potency was “inactive”.
In the case of O=C(Nc1ccc(Cl)c(C(F)(F)F)c1)N1CCCC(O)C1 (centres undefined), the Potency is reported as “inactive”.
In the case of O=C(CN1CCOCC1)Nc1cccc(C(F)(F)F)c1, the Potency is reported as “inactive”.
For CCOC(=O)c1ccc(N2C(=O)c3n[nH]c(-c4ccco4)c3C2c2ccc(F)cc2)cc1 (centres undefined), the Potency was inconclusive: 35.5 µM [inhibitor, single point].
With CCn1c(CC(=O)Nc2ccc(C)cc2)nnc1SCC(=O)N1CCN(c2ccccc2)CC1 the Potency was inconclusive: 0.411 µM [inhibitor, full curve, poor fit].
With O=c1[nH]c(C2CCCN(S(=O)(=O)Cc3ccccc3)C2)nc2c1nnn2Cc1cccc(Cl)c1 (centres undefined) the Potency was “inactive”.
In the case of N#Cc1c(Cl)nc(N/N=C/c2ccccc2)c(Cl)c1Cl, the Potency is reported as inconclusive: 20.6 µM [inhibitor, single point].
With COc1ccc(-c2cc(C(F)(F)F)nc(SCC(=O)NCc3ccc(Cl)cc3)n2)cc1 the Potency was “inactive”.
For CC(C)OCc1cc(CN2CCN(c3ccccc3)CC2)c(O)c2ncccc12, the Potency was inconclusive: 3.16 µM [inhibitor, single point].
For Nc1ccc(C2(c3ccc(N)cc3)C(=O)Nc3ccccc32)cc1, the Potency was “inactive”.
With COc1ccc(-c2csc(N(CC3CCCO3)C(=O)c3ccc(C)cc3)n2)cc1 (centres undefined) the Potency was inconclusive: 16.4 µM [inhibitor, single point].
With COC(=O)C1(C(=O)OC)CC(CO)C(=O)[C@@H]1c1ccccc1 (some centres undefined) the Potency was “inactive”.
With COc1ccc(C2C3=C(N=C4SCC(=O)N42)c2ccccc2CC3)cc1OC (centres undefined) the Potency was “inactive”.
With COc1ccc(-c2nc(N)ncc2Oc2ccccc2Br)c(O)c1 the Potency was inconclusive: 3.16 µM [inhibitor, full curve, poor fit].
For NC(=O)N/N=C/c1ccccc1OCC(=O)NCc1ccccc1, the Potency was inconclusive: 4.47 µM [inhibitor, full curve, poor fit].
In the case of COC(=O)Cn1c(=NC(=O)c2sc3ccccc3c2Cl)sc2cc(S(N)(=O)=O)ccc21, the Potency is reported as “inactive”.
In the case of O=C(Cn1ccc2ccccc2c1=O)NCC(=O)N1CCN(c2ccccc2F)CC1, the Potency is reported as “inactive”.
For CC1(C)CC(=O)c2cnc(NC(=O)CSc3nc4ccccc4o3)nc2C1, the Potency was “inactive”.
In the case of Cc1cc(C)n2nc(SCCC(=O)NCCc3ccccc3)nc2n1, the Potency is reported as inconclusive: 6.31 µM [activator, single point].
For Cc1nc(C(=O)Nc2cccc(Cl)c2)nn1-c1cc(OC(C)C)c(Cl)cc1Cl, the Potency was inconclusive: 29.1 µM [inhibitor, single point].
With O=C(Nc1ccccc1N1CCN(C(=O)c2ccc(Cl)cc2)CC1)c1cccc([N+](=O)[O-])c1 the Potency was inconclusive: 35.5 µM [inhibitor, single point].
With CC(=O)Oc1ccc(-c2nc3cc(Cl)ccc3c(=O)o2)cc1 the Potency was “inactive”.
With CC1=Nc2ccccc2N=C(NC(=O)CN2CCN(c3ccccc3)CC2)C1c1ccccc1 (centres undefined) the Potency was inconclusive: 11.2 µM [inhibitor, partial curve, poor fit].
With O=C(Cc1csc(NC(=O)Nc2ccc(Cl)cc2)n1)NC1CCCC1 the Potency was inconclusive: 7.94 µM [inhibitor, partial curve, poor fit].
In the case of CC(=O)Nc1ccc(-c2csc(-c3cccnc3)n2)cc1, the Potency is reported as inconclusive: 11.2 µM [inhibitor, partial curve, poor fit].
For COc1ccc(-c2c(C)oc3c(CN4CCCC(C)C4)c(O)ccc3c2=O)cc1OC (centres undefined), the Potency was inconclusive: 5.62 µM [activator, single point].
In the case of Cc1ccc(N(C(=O)c2snc(C(N)=O)c2N)C(C(=O)NC2CCCC2)c2ccncc2)cc1 (centres undefined), the Potency is reported as inconclusive: 25.1 µM [inhibitor, single point].
For O=C(CNc1cccc(S(=O)(=O)N2CCCC2)c1)Nc1cccc(Br)c1, the Potency was inconclusive: 17.8 µM [inhibitor, single point].
In the case of O=C1C(=O)N(CCN2CCOCC2)C(c2ccccn2)/C1=C(/O)c1ccccc1 (centres undefined), the Potency is reported as “inactive”.
With CCC(=O)Nc1ccc(N2CCC(C)CC2)cc1 the Potency was “inactive”.
With Cc1ccc(NC(=O)Nc2sc(=S)n(C)c2C)cc1 the Potency was inconclusive: 17.8 µM [inhibitor, single point].
In the case of CC1CCCC(NC(=O)CSc2n[nH]c(N)n2)C1C (centres undefined), the Potency is reported as inconclusive: 6.31 µM [inhibitor, partial curve, poor fit].
For O=C(c1ccc(OCCCc2cnc[nH]2)cc1)C1CC1, the Potency was inconclusive: 3.26 µM [activator, single point].
In the case of Cc1ccc(-c2nc(NCc3ccc(F)cc3)n(S(C)(=O)=O)n2)cc1, the Potency is reported as inconclusive: 35.5 µM [inhibitor, partial curve, poor fit].
For Clc1ccc(-c2csc(Nc3ccccc3)[n+]2Cc2ccco2)c(Cl)c1, the Potency was inconclusive: 29.1 µM [inhibitor, single point].
